From paper PMC13485503
These are yes or no findings as the source states them, for the method shown. Binding seen in cells or lysates may run through a third protein. Some binding calls cover weakened binding; strength is not graded here.

Protein sequences, listed by entry. Tags and fused reporters are not part of them. Lines headed by an entry give the natural chain unless they say otherwise; changes in a name come on top.
UniProt Q9EPK5: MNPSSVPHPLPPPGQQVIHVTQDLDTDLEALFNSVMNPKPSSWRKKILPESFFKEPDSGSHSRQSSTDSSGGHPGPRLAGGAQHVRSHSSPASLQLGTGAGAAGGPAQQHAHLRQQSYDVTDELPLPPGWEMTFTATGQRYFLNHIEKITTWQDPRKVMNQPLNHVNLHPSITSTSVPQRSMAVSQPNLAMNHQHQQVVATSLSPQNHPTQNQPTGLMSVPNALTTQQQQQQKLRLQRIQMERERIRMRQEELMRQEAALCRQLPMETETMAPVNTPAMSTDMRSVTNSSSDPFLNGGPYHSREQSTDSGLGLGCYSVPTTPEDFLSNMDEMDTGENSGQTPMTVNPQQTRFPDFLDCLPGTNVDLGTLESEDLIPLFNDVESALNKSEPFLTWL
UniProt P0C0S6: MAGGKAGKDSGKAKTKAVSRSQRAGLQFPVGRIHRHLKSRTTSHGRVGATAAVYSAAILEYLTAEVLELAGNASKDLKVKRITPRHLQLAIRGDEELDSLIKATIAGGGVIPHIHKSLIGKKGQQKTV

Target: Transcriptional co-activator with PDZ-binding motif (TAZ) (mouse (endogenous in TC-1)) (UniProt Q9EPK5)
Experiment: co-IP; TC-1 cell lysates incubated with Protein AG magnetic beads and primary antibody or IgG negative control at 4 °C overnight; three washes; Western blotting

binding: binds
Substance: H2A.Z, a histone H2A variant (from UniProt P0C0S6 1-128)
